For this experiment, the target named is T1, DDX47 (human (endogenous in HEK Expi293F)) (UniProt Q9H0S4).
T1 sequence: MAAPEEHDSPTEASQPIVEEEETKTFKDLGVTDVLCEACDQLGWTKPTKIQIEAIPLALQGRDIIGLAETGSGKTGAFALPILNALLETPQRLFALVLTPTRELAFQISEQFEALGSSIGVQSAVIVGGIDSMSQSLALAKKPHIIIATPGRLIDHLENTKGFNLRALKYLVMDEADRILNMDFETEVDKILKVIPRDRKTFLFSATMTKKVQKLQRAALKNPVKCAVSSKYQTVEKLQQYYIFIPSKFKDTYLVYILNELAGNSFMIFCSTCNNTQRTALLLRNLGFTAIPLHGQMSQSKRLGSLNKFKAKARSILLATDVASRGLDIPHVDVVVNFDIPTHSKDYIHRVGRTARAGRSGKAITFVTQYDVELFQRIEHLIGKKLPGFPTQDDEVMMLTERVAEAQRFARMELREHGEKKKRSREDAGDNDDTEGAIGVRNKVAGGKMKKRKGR
In words: cross-linking.

Results are given in words; binding and its absence hold for the method and conditions named. In cells and extracts the contact can be indirect. Some results given as binding are weak or reduced against the parent protein; the word gives no strength.

B1: UTP25 (protein, UniProt Q68CQ4 1-756)
chain: MGKRGSRSQSQLLNTLTKKQKKHLRDFGEEHPFYDRVSRKEAKPQICQLSESSDSSDSESDSESEPQQVSGYHRLLATLKNVSEEEEEDEEEEEEEDSIVDDAEMNDEDGGSDVSVEEEMAAESTESPENVALSADPEGKEDGEEPPGTSQTSPEEFTDAKHESLFSLETNFLEEESGDNSSLKASQDPFLQHVNKELKEKAIQAVATNPKTTHELKWPILGQLFFSSKFQKLETFKPPKDIDLKSLHLQKPLESTWTKTNSQFLSGPQKSSSPFTPLQKELFLIMNSYRDLFYPERTALKNGEEIRHVYCLHVINHILKANAQVLGNNSRRRSQKFGVGDDDDFRDQGLTRPKVLIVVPFREAALRVVQLFISLLEGDSKKKIIVSNKKRFQGEYGSDPEERPPNLKRPEDYEAVFVGNIDDHFRIGVAILQRSIRLYAPFYSSDILIASPLGLRTIIGGEGEKKRDFDFLSSIELLIIDQADIYLMQNWEHVLHLMNHMNLLPLDSHGVDFSRVRMWSLNNWSKYYRQTLLFGALQDAQINSVFNKYCVNMQGQVAVRNVPMTGSISHVLVQLPHVFQRMEAENLASVIDARFNFFVNKILPQYRDAVMSHTLIYIPSYFDFVRLRNYFKKEELNFTHICEYTQKSGVSRARHFFLQGEKQFLLFTERFHFYKRYTIKGIRNLIFYELPTYPHFYSEICNMLRATNRGEEATWTCTVLYSKYDAQRLAAVVGVERAAQMLQSNKNVHLFITGEK
Regarding B1, the binding result is on record as “binds”.

For the origin of these results see article doi:10.1101/2022.11.16.516813.
